Data as given in PubChem BioAssay AID1224826 (NIAID, 2016)
Purpose: 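Knock-downs that raise or lower Tnf reporter signal after endotoxin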 (primary screen). System: RAW264.7 G9 macrophages from mouse bearing reporters for p65 (GFP) and the Tnf promoter (mCherry). Reagents: siRNA pool against mouse genes, 100 nM. Duration: 16 h of LPS stimulation, after 2 days of siRNA transfection. Treatment: bacterial lipopolysaccharide (Salmonella minnesota R595), 10 ng/ml. Detection: 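Imaged Tnf reporter mCherry in nuclei, minus background, normalised per plate to the median and expressed as robust z-scores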. Direction: Tnf reporter robust z-score: higher = stronger Tnf promoter reporter signal after LPS. Call rule: 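a well counts as active at a score of -1.3 or below (Tlr4 knock-down control median) or above 3 (raised signal); controls and wells holding fewer than 50 cells are excluded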. Meaning of the calls: active = Tnf reporter clearly lowered or raised; inactive = no clear change in Tnf reporter.
The whole screen tested about 17,000 reagents; below is a random part of them. About 1,110 of them (6.6%) were called active. 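Active means lowered or raised reporter signal; replicate intensities are raw and not normalised per plate.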 Not all columns of the deposit are shown.

The opening 7 records, ahead of the listing:
target	Tnf reporter robust z-score	fewer than 50 cells in well	Outcome
Cacnb3 (calcium channel, voltage-dependent, beta 3 subunit)	-0.2	enough cells in well	inactive
S1pr2 (sphingosine-1-phosphate receptor 2)	-0.19	enough cells in well	inactive
C2cd2 (C2 calcium-dependent domain containing 2)	-0.83	enough cells in well	inactive
St14 (suppression of tumorigenicity 14 (colon carcinoma))	-0.46	enough cells in well	inactive
Cavin2 (caveolae associated 2)	-0.33	enough cells in well	inactive
Micall2 (MICAL-like 2)	-0.49	enough cells in well	inactive
Tfr2 (transferrin receptor 2)	-0.23	enough cells in well	inactive

The listing, from the start:
target	Tnf reporter robust z-score	fewer than 50 cells in well	Outcome
Cacnb3 (calcium channel, voltage-dependent, beta 3 subunit)	-0.2	enough cells in well	inactive
S1pr2 (sphingosine-1-phosphate receptor 2)	-0.19	enough cells in well	inactive
C2cd2 (C2 calcium-dependent domain containing 2)	-0.83	enough cells in well	inactive
St14 (suppression of tumorigenicity 14 (colon carcinoma))	-0.46	enough cells in well	inactive
Cavin2 (caveolae associated 2)	-0.33	enough cells in well	inactive
Micall2 (MICAL-like 2)	-0.49	enough cells in well	inactive
Tfr2 (transferrin receptor 2)	-0.23	enough cells in well	inactive
Vmn2r26 (vomeronasal 2, receptor 26)	-1.6	enough cells in well	active
Ctdspl (CTD small phosphatase like)	0.05	enough cells in well	inactive
Mup2 (major urinary protein 2)	-0.62	enough cells in well	inactive
Aknaos (AT-hook transcription factor, opposite strand)		fewer than 50 cells per well; well left out of calls	inactive
Phf11a (PHD finger protein 11A)	0.97	enough cells in well	inactive
Mpo (myeloperoxidase)	0.43	enough cells in well	inactive
Ehf (ets homologous factor)	-0.77	enough cells in well	inactive
4930433N12Rik (RIKEN cDNA 4930433N12 gene)		fewer than 50 cells per well; well left out of calls	inactive
Pdcl2 (phosducin-like 2)	-0.98	enough cells in well	inactive
Adrm1	-1.41	enough cells in well	active
Mip (major intrinsic protein of lens fiber)	-0.37	enough cells in well	inactive
Ly6i (lymphocyte antigen 6 family member I)	0.14	enough cells in well	inactive
Tex13a (testis expressed 13A)	-0.54	enough cells in well	inactive
Arr3 (arrestin 3, retinal)	1.39	enough cells in well	inactive
Slc37a1		fewer than 50 cells per well; well left out of calls	inactive
Prss37 (serine protease 37)	-0.12	enough cells in well	inactive
Mapk13 (mitogen-activated protein kinase 13)	-0.29	enough cells in well	inactive
Rps3a1 (ribosomal protein S3A1)		fewer than 50 cells per well; well left out of calls	inactive
Clec14a (C-type lectin domain family 14, member a)	1.52	enough cells in well	inactive
Lgalsl (galectin like)		fewer than 50 cells per well; well left out of calls	inactive
Il4 (interleukin 4)	0.2	enough cells in well	inactive
Slc22a26	-0.21	enough cells in well	inactive
Prkra	1.32	enough cells in well	inactive
Saa2 (serum amyloid A 2)	0.03	enough cells in well	inactive
Gja8 (gap junction protein, alpha 8)	-0.14	enough cells in well	inactive
Slc29a4		fewer than 50 cells per well; well left out of calls	inactive
Cck (cholecystokinin)	-0.36	enough cells in well	inactive
4933427D14Rik (RIKEN cDNA 4933427D14 gene)	-1.12	enough cells in well	inactive
S100a1 (S100 calcium binding protein A1)	0.48	enough cells in well	inactive
Ndnf (neuron-derived neurotrophic factor)	-1.01	enough cells in well	inactive
Akap9 (A kinase anchor protein 9)	-0.13	enough cells in well	inactive
Otp (orthopedia homeobox)		fewer than 50 cells per well; well left out of calls	inactive
Syt10 (synaptotagmin X)	2.38	enough cells in well	inactive
Tbc1d22b (TBC1 domain family, member 22B)	-0.74	enough cells in well	inactive
Tyms (thymidylate synthase)	0.96	enough cells in well	inactive
Col18a1 (collagen, type XVIII, alpha 1)	0.11	enough cells in well	inactive
Sema3a	-0.42	enough cells in well	inactive
Acsl3 (acyl-CoA synthetase long-chain family member 3)	-1.69	enough cells in well	active
Cnga1 (cyclic nucleotide gated channel alpha 1)	-0.67	enough cells in well	inactive
Mrc1 (mannose receptor, C type 1)	-0.43	enough cells in well	inactive
Chodl (chondrolectin)	-0.32	enough cells in well	inactive
Rwdd2a (RWD domain containing 2A)	2.5	enough cells in well	inactive
Crhr2 (corticotropin releasing hormone receptor 2)	0.05	enough cells in well	inactive
Dcaf4 (DDB1 and CUL4 associated factor 4)	-0.11	enough cells in well	inactive
Gzmf (granzyme F)	-1.27	enough cells in well	inactive
Cpxm1 (carboxypeptidase X, M14 family member 1)	-0.79	enough cells in well	inactive
Bgn (biglycan)	-0.98	enough cells in well	inactive
Rrm2b (ribonucleotide reductase M2 B (TP53 inducible))	0.53	enough cells in well	inactive
Azin1 (antizyme inhibitor 1)	-0.61	enough cells in well	inactive
Stx5a (syntaxin 5A)		fewer than 50 cells per well; well left out of calls	inactive
Zdhhc7 (zinc finger, DHHC domain containing 7)	0.78	enough cells in well	inactive
